Legend:
Format in all cases: cell-based
HEC-1A cells = test: CellTiter-Glo Luminescent assay on endometrial cancer HEC-1A cells; details: Homo sapiens, 72 hours, read-out: Inhibition of the viability of endometrial cancer cells, IC50
Method: CellTiter-Glo® Luminescent Assay to Measure the Inhibitory Activity of the Compounds on In Vitro Growth of Endometrial Cancer HEC-1A Cells
HEC-1A cells are endometrial cancer cell lines only expressing ER-36. Human endometrial cancer HEC-1A cells were obtained from ATCC and maintained in DMEM and 10% fetal calf serum at 37° C., under 5% CO2 atmosphere. The cells were seeded on 96-well plate at a density of 6×10^3 cells per well. HEC-1A cells were treated with a test compound dissolved in DMSO at the concentrations of zero, 0.3 μM, 0.5 μM, 1 μM, 2 μM, 3 μM, 5 μM, 20 μM, 30 μM, 50 μM and 100 μM for 72 hours. Treated cells were examined by CellTiter-Glo® Luminescent Cell Viability Assay Kit (Promega), and luminescence values were recorded with Envision.

K562 cells = test: CellTiter-Glo Luminescent Cell Viability Assay on leukemia K562 cells; details: Homo sapiens, 72 hours, read-out: Inhibition of the viability of leukemia cells, IC50
Method: A: In Vitro CellTiter-Glo® Luminescent Cell Viability Assay on Leukemia K562 Cells
(§1) The leukemia K562 cells were obtained from ATCC and maintained in IMDM and 10% fetal calf serum at 37° C., under 5% CO2 atmosphere. The cells were seeded on 96-well plate at a density of 6×10^3 cells per well. K562 cells were treated with a test compound dissolved in DMSO at the concentrations of zero, 0.3 μM, 0.5 μM, 1 μM, 2 μM, 3 μM, 5 μM, 10 μM, 20 μM, 30 μM, 50 μM and 100 μM for 72 hours. Treated cells were examined by CellTiter-Glo® Luminescent Cell Viability Assay Kit (Promega), and luminescence values were recorded with Envision.

HL-60 cells = test: CellTiter-Glo Luminescent Cell Viability Assay on leukemia HL-60 cells; details: Homo sapiens, 72 hours, read-out: Inhibition of the viability of leukemia cells, IC50
Method: B: In Vitro CellTiter-Glo® Luminescent Cell Viability Assay on Leukemia HL-60 Cells
as §1, with “HL-60” for “K562”

Molt-4 cells = test: CellTiter-Glo Luminescent Cell Viability Assay on leukemia Molt-4 cells; details: Homo sapiens, 72 hours, read-out: Inhibition of the viability of leukemia cells, IC50
Method: C: In Vitro CellTiter-Glo® Luminescent Cell Viability Assay on Leukemia Molt-4 Cells
as §1, with “leukemia Molt-4” for “leukemia K562”, “in RPMI-1640” for “in IMDM”, “well. […]” for “well. K562”

IC50 (HEC-1A cells): 19.5 µM
IC50 (K562 cells): 18.2 ± 5.65 µM
IC50 (HL-60 cells): 8.19 ± 3.89 µM
IC50 (Molt-4 cells): 11.7 µM
SMILES: CC/C(=C(\c1ccccc1)c1ccc(OCCN(C)C)cc1)c1ccccc1 [Tamoxifen, reference compound]

— US9090583B2, “Benzopyrone estrogen receptor regulator” (BEIJING SHENOGEN PHARMA GROUP LTD., priority 2010, dated 2015)
